Data published in PMC8743267.
No constants are given. Whether binding was seen depends on the method and setting. Binding seen in cells or lysates may run through a third protein. These calls come from enrichment with a bait or labelling near it, and not all partners need be listed. A no says only that the protein was not detected with the bait.

Protein sequences, listed by entry. Tags and fused reporters are not part of them. Lines headed by an entry give the natural chain unless they say otherwise; changes in a name come on top. Residues count along the entry.
UniProt P05362, residues 28-532: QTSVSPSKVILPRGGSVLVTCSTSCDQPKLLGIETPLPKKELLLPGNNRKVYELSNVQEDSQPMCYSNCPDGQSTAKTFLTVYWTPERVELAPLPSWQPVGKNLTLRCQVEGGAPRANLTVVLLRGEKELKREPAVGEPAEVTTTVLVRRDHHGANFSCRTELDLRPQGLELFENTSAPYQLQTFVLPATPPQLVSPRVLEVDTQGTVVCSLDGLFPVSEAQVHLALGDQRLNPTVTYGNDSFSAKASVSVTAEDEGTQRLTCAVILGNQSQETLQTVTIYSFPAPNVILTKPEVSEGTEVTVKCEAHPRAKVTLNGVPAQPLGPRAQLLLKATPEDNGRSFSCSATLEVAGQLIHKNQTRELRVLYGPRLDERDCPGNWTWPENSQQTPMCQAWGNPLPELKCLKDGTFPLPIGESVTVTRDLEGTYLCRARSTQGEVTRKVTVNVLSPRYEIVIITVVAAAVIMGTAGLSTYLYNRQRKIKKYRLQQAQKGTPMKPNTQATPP
UniProt Q9UPT5: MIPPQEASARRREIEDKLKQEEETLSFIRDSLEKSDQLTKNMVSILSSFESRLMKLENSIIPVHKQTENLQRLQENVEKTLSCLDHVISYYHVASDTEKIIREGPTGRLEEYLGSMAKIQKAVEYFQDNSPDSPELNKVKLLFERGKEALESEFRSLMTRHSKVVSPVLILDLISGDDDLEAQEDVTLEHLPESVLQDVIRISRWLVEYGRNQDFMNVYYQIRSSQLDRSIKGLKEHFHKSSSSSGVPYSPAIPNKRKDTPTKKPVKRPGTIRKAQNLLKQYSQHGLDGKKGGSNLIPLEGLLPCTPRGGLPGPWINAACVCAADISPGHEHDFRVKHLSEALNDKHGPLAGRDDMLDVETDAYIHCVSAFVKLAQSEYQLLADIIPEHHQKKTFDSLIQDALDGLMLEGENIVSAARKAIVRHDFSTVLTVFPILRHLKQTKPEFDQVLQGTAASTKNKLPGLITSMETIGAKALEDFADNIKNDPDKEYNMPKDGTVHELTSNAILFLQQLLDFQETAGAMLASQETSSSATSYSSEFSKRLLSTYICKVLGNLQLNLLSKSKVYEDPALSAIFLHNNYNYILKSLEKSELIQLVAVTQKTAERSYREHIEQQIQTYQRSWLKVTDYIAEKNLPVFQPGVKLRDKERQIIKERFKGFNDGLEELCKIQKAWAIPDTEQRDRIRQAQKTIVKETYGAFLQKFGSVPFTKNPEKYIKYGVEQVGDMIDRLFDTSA

Molecular target: ICAM-1-BirA* chimera (UniProt P05362)
Experiment: proximity labelling; BioID: HepG2 cells stably expressing ICAM-1-BirA* incubated with 50 uM biotin for 16 h, lysed, biotinylated proteins pulled down with neutravidin-agarose, western blot; parental HepG2 cells as control

exocyst component Exo70 (from UniProt Q9UPT5 1-735)
binding: no binding

B1: plasmolipin (PLLP) (protein, UniProt Q9Y342 1-182)
chain: MAEFPSKVSTRTSSPAQGAEASVSALRPDLGFVRSRLGALMLLQLVLGLLVWALIADTPYHLYPAYGWVMFVAVFLWLVTIVLFNLYLFQLHMKLYMVPWPLVLMIFNISATVLYITAFIACSAAVDLTSLRGTRPYNQRAAASFFACLVMIAYGVSAFFSYQAWRGVGSNAATSQMAGGYA
binding: binds

B2: EPS15 homology (EH) domain-containing protein EHD1 (protein, UniProt Q9H4M9 1-534)
chain: MFSWVSKDARRKKEPELFQTVAEGLRQLYAQKLLPLEEHYRFHEFHSPALEDADFDNKPMVLLVGQYSTGKTTFIRHLIEQDFPGMRIGPEPTTDSFIAVMHGPTEGVVPGNALVVDPRRPFRKLNAFGNAFLNRFMCAQLPNPVLDSISIIDTPGILSGEKQRISRGYDFAAVLEWFAERVDRIILLFDAHKLDISDEFSEVIKALKNHEDKIRVVLNKADQIETQQLMRVYGALMWSLGKIINTPEVVRVYIGSFWSHPLLIPDNRKLFEAEEQDLFKDIQSLPRNAALRKLNDLIKRARLAKVHAYIISSLKKEMPNVFGKESKKKELVNNLGEIYQKIEREHQISPGDFPSLRKMQELLQTQDFSKFQALKPKLLDTVDDMLANDIARLMVMVRQEESLMPSQVVKGGAFDGTMNGPFGHGYGEGAGEGIDDVEWVVGKDKPTYDEIFYTLSPVNGKITGANAKKEMVKSKLPNTVLGKIWKLADVDKDGLLDDEEFALANHLIKVKLEGHELPADLPPHLVPPSKRRHE
binding: no binding
